Experimental findings from PubChem BioAssay AID493014 (National Center for Advancing Translational Sciences (NCATS), 2011) are described below.

One may read the AC50 as the concentration at which the activity in the assay is half-maximal.

The list shows a part of the results. These are further read-outs of the screen, such as a control signal, another cell line or another target. No call is given for them. Most of these compounds were active or inconclusive in the main read-out, so they are no random draw. The note in brackets gives the kind of curve behind each potency; many fits are weak.

A short description of this experiment: qHTS Assay to Find Inhibitors of Chronic Active B-Cell Receptor Signaling. As to conditions: ABC-DLBCL IkBa-CBG/CBR reporter, luminescence ratio (green luciferase fused to IkBa over red control in TMD8 lymphoma cells), 4 h. The gist of the method:
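Doxycycline induced both beetle luciferases in TMD8 lymphoma cells; IKK-driven degradation limits the IkappaBalpha-fused green signal, while red luminescence normalises for cell number and nonspecific effects. Compounds tested up to 46 uM, 4 hrs.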

Where [1] appears, read: measured here: CBR red luminescence, cell number.
The mark [2] stands for this setting: measured here: IkBa-CBG green luminescence.

As for `COc1ccc(C(=O)NC(=S)N2CCCCC2c2cccnc2)cc1OC` (configuration not stated), under setting [1], the AC50 is 31.6 µM [rising, single point].
`COc1ccc(/C=N/NC2=NCCCCC2)cc1`: the AC50 under setting [1] is 0.13 µM [falling, full curve, poor fit].
For the compound `Cc1nc(C(=O)Nc2ccccc2Cl)cc2c1[nH]c1ccccc12`, under setting [1], the AC50 is 0.0891 µM [falling, full curve, poor fit].
`Cc1cc(C)n(CCCNC(=O)c2cc(COc3ccc(C)c(C)c3)on2)n1`: the AC50 under setting [1] was 12.6 µM [falling, partial curve, poor fit].
The same measure, in the same setting: the result for `COc1ccc(N2CCN(C3CCCN(C(=O)CCN4CCCCO4)C3)CC2)cc1` (configuration not stated) reads 22.4 µM [rising, single point].
On to `COc1ccc(/C=c2\s/c(=C\C(=O)C(C)(C)C)[nH]c2=O)cc1O`, for which the AC50 under setting [1] is 5.62 µM [rising, single point].
`c1cncc(-c2noc(-c3cccc4ccccc34)n2)c1`: the AC50 under setting [1] was 0.411 µM [rising, full curve, poor fit].
On to `COc1cc(C)c(C(C)C)cc1S(=O)(=O)n1cnc(C)c1`, for which the AC50 by setting is: under setting [1], 29.1 µM [rising, single point]; under setting [2], 23.1 µM [falling, single point].
For the compound `CN(C)S(=O)(=O)c1ccc(Oc2ccccc2)cc1`, the AC50 under setting [1] is 16.4 µM [rising, single point].
For `O=C(NC(=S)N1CCCCCC1)c1ccccc1Cl`, the AC50 by setting is: under setting [1], 31.6 µM [rising, single point]; under setting [2], 20 µM [falling, single point].
For `CS(=O)(=O)N(Cc1ccccc1)c1ccccc1C(=O)N1CCN(c2ccccc2)CC1`, under setting [1], the AC50 is 1.84 µM [falling, partial curve, poor fit].
In the case of `CCC(=O)NC(Nc1nc(C)cs1)(C(=O)OC)C(F)(F)F` (configuration not stated), under setting [1], the AC50 was 29.1 µM [rising, single point].
Take `Cc1ccc(NC(=O)CSc2nc3ccccc3c(=O)n2CCCC(=O)NCCCN2CCOCC2)cc1`: under setting [1], the AC50 is 0.631 µM [falling, full curve, poor fit].
With `COc1ccc(C2CC(C(F)(F)F)n3ncc(C(=O)Nc4cccc(O)c4)c3N2)cc1OC` (configuration not stated), under setting [1], the AC50 is 35.5 µM [rising, single point].
As for `Cc1ccc(-c2nc(SCC(N)=O)c(C#N)c3c2CCCC3)cc1`, the AC50 under setting [1] is 0.461 µM [rising, partial curve, poor fit].
On to `O=C(/C=C/c1cc2ccccc2o1)c1ccccc1O`, for which the AC50 under setting [1] was 35.5 µM [falling, single point].
In the case of `CC(C)(C)c1cc2nc(N)nc(N)n2n1`, the AC50 under setting [1] is 3.16 µM [rising, single point].
With `O=C1N[C@@H](Cc2c[nH]c3ccccc23)COC(=O)[C@H](Cc2ccc(F)cc2)C/C=C\C[C@H]1CC(=O)N(CCO)Cc1ccccc1`, the AC50 under setting [1] was 29.1 µM [falling, single point].
`COc1ccc(CCNC(=O)c2cnc3scc(C)n3c2=O)cc1OC`: the AC50 under setting [2] is 4.61 µM [falling, full curve, poor fit].
Turning to `COC(=O)c1ccsc1NC(=O)CCS(=O)(=O)c1ccccc1`, the AC50 under setting [1] was 4.47 µM [falling, partial curve].
As for `Cc1cc(C)c2nc3sc(C(=O)N4CCOCC4)c(N)c3cc2c1`, the AC50 is 1.78 µM [rising, partial curve, poor fit] under setting [1] and 1.26 µM [falling, full curve, poor fit] under setting [2].
Turning to `Cc1ccc(N=C/C(C(=O)C(F)(F)F)=C(\O)c2cccs2)cc1`, under setting [1], the AC50 is 35.5 µM [falling, single point].
Same read-out and setting: the result for `COc1ccccc1NC(=O)Nc1nnc(CC(=O)Nc2ccccc2C)s1` reads 15.8 µM [falling, partial curve, poor fit]; that for `O=C(COC(=O)[C@@H]1CC(O)CN1S(=O)(=O)c1ccc2c(c1)OCCO2)Nc1cc(F)ccc1F` (some centres not stated), 5.8 µM [rising, full curve, poor fit]; that for `O=C(CCc1ccc(S(=O)(=O)N2CCOCC2)cc1)Nc1ccc2ccccc2c1`, 32.6 µM [falling, single point].
Regarding `CC1CCCN(S(=O)(=O)c2coc(C(N)=O)c2)C1` (configuration not stated), the AC50 under setting [1] was 2.31 µM [rising, partial curve].
For `O=C(/C=C/c1cn(-c2ccccc2)nc1-c1cccnc1)N1CCCCC1`, the AC50 under setting [1] was 22.4 µM [falling, partial curve, poor fit].
Still for that read-out and setting: to `O=C(CSc1nnc(-c2ccncc2)o1)NCc1ccccc1Cl` belongs 29.1 µM [falling, single point]; to `CCC1CCC(NC2CCCCNC2=O)CC1` (configuration not stated), 6.51 µM [falling, single point].
For `CCCCNC(=O)Nc1ccccc1C(=O)NCCC`, under setting [1], the AC50 was 7.31 µM [rising, partial curve].
In the case of `Cc1cccc(N=N/C(=C\O)C(=O)c2ccc(Br)cc2)c1`, the AC50 under setting [1] is 3.55 µM [rising, full curve, poor fit].
Same read-out and setting: to `CCN(CC)CCCNC(=O)c1cc2c(=O)n(CC)c3ccccc3c2s1` belongs 10 µM [falling, single point]; to `CCOc1cccc(OCCCCN2CCOCC2)c1`, 3.55 µM [rising, single point].
Regarding `COc1cc(C(=O)NNC(=S)NC(=O)c2ccc(Cl)cc2)cc(OC)c1OC`, the AC50 is 29.1 µM [rising, single point] under setting [1] and 23.1 µM [falling, single point] under setting [2].
In the case of `O=C(CCN1C(=O)/C(=C/c2ccccc2F)SC1=S)N[C@@H](CO)Cc1ccccc1`, the AC50 under setting [1] was 2.82 µM [falling, partial curve, poor fit].
On to `CC1=C(C(=O)c2ccccc2)C(c2cn(-c3ccccc3)nc2-c2ccc(Cl)cc2)NC(=S)N1` (configuration not stated), for which the half-maximal activity concentration (AC50) under setting [1] was 22.4 µM [rising, single point].
With `O=C(N/C(=C/c1cccs1)C(=O)N1CCOCC1)c1ccccc1`, under setting [1], the AC50 is 2.51 µM [falling, full curve, poor fit].
On the same count and under the same terms, to `COc1ccc(CN(C)C(=O)Cc2c[nH]c3ccccc23)cc1` belongs 6.31 µM [rising, single point].
For `COc1ccc(CCN2CC(C(=O)O)CC2=O)cc1OC` (configuration not stated), under setting [1], the AC50 is 32.6 µM [rising, partial curve, poor fit].
`COc1cc(C(=O)N/N=C/c2ccc(OC(=O)N3CCOCC3)cc2)cc(OC)c1OC`: the AC50 under setting [2] was 29.1 µM [falling, single point].
On to `CCOC(=O)[C@H]1[C@H]2COc3ccc(Cl)cc3[C@@H]2N2C(=O)CN(Cc3ccc(Cl)cc3)C(=O)[C@@]12C`, for which, under setting [1], the AC50 is 32.6 µM [falling, single point].
For `O=C(NC1CCCCC1)C1CCN(S(=O)(=O)c2cccc3nonc23)CC1`, the AC50 under setting [1] was 3.16 µM [rising, full curve, poor fit].
In the case of `Cn1c(=O)c2c(nc(N3CCN(c4ccc([N+](=O)[O-])cc4)CC3)n2C)n(C)c1=O`, under setting [1], the AC50 was 4.47 µM [falling, full curve, poor fit].
On to `Cc1cc2sc(NC(=O)c3ccco3)nc2cc1Cl`, for which, under setting [1], the AC50 was 0.794 µM [falling, full curve, poor fit].
Still for that read-out and setting: to `COC(=O)c1sccc1NC(=O)Cn1nnc(-c2ccccc2C)n1` belongs 3.16 µM [falling, full curve, poor fit]; to `CCn1nc(C)c(CNC(=O)c2cc(COc3cncc(Cl)c3)on2)c1C`, 35.5 µM [rising, single point].
`CCCCC[C@H](O)/C=C/[C@@H]1[C@@H](C/C=C\CCCC(=O)O)[C@@H](O)C[C@H]1O`: the AC50 runs as follows: under setting [1], 1.03 µM [rising, full curve]; under setting [2], 3.66 µM [falling, full curve].
For the compound `Cn1cccc1-c1cc(C(=O)N/N=C/c2ccc(F)cc2)[nH]n1`, the AC50 under setting [1] was 6.31 µM [falling, full curve, poor fit].
Take `CC(C)OCCCNC(=O)c1cccc(NC(=O)c2ccccc2)c1`: the AC50 under setting [1] is 0.651 µM [rising, partial curve, poor fit].
For `Cc1ccccc1OCC(=O)OCC(=O)N1CCCc2ccccc21`, under setting [1], the AC50 was 1.46 µM [rising, full curve, poor fit].
As for `O=C(Nc1ccc2[nH]c3c(c2c1)CCCC3)c1ccco1`, the AC50 under setting [1] is 7.31 µM [rising, single point].
Turning to `C=CCNC(=O)c1ccc(OC2CCN(S(=O)(=O)N(C)C)CC2)cc1`, the AC50 under setting [1] is 35.5 µM [rising, single point].
Take `Cc1ccc(C(=O)O/N=C(\N)c2ccc(Br)cc2)cc1`: the AC50 under setting [1] is 6.51 µM [falling, full curve, poor fit].
Consider `Cc1ccc(-c2nnc(SCC(=O)NC3CCCc4ccccc43)n2N)cc1` (configuration not stated), for which, under setting [1], the half-maximal activity concentration (AC50) was 29.1 µM [falling, single point].
Take `COc1ccc(-c2nc3sc(CCNC(=O)C(=O)Nc4ccc(OC)c(OC)c4)c(C)n3n2)cc1`: the AC50 under setting [1] was 12.6 µM [rising, single point].
`O=C(Cc1ccccc1)NCC(=O)N1CCCCC1`: the AC50 under setting [1] is 28.2 µM [falling, partial curve, poor fit].
The same measure, in the same setting: the result for `COc1cccc(C(=O)NNC(=O)C(=O)Nc2ccc(C)cc2)c1` reads 11.2 µM [falling, partial curve, poor fit]; that for `[O-]/C(=C(\C(=S)Nc1ccc(Cl)cc1)[n+]1ccccc1)c1ccc(OC(F)F)cc1`, 7.94 µM [falling, partial curve, poor fit].
Turning to `Cc1ccc([C@H]2C(C(=O)O)=CC[C@@H](c3ccc(Cl)c(Cl)c3)N2S(=O)(=O)c2ccc(C)cc2)cc1`, the AC50 under setting [1] is 20.6 µM [falling, single point].
Turning to `COCCNC(=S)N(CCc1c(C)[nH]c2ccc(Cl)cc12)Cc1cccnc1`, the AC50 under setting [1] was 35.5 µM [falling, single point].
For `COCCn1nnnc1SCC(=O)c1ccccc1`, under setting [1], the AC50 was 0.092 µM [rising, full curve, poor fit].
As to `Cc1cc(/C=C2\SC(=Nc3ccc(F)cc3)NC2=O)c(C)n1-c1ccc(S(N)(=O)=O)cc1`, the AC50 under setting [1] is 5.17 µM [falling, full curve].
